PubChem BioAssay AID1508600 (Functional Genomics Laboratory (NCATS/FGL), 2020)
Among all 53,000 sequences or so, about 3,700 (7%) were called active.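 The calls were made as follows: active = gene knockdowns whose robust z-score for IL-1 alpha signal is at least 2 or at most -2, so actives lie on both sides; inactive = the rest.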 The list shows a part of the results.

Assay: Components of the Cytosolic LPS Sensing Pathway: Gene Identification via Genome-wide siRNA Screen;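 also: robust z of the log signal after scaling to non-targeting control siRNA wells of the plate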
Conditions: RAW264.7 macrophages, IL-1a HTRF, actives lie on both sides, screened at 100 nM (by protocol), cells primed 5 h with Pam3CSK4 first
Procedure, shortened: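 RAW264.7; siRNA 100 nM final, RNAiMAX, 48h 37 degrees C; Pam3CSK4 5 h; LipidA + TransIT-TKO 24 h; IL-1a HTRF; CellTiter-Glo viability; robust z vs negative-control median.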

Sequence	z-score
GGAGCCGACUUCUUAUUCGTT against Mastl	inactive: -0.914
GCCCUGAUGCCAAAUUCCATT against Serinc3	inactive: -0.35
GCCACGAAAAGAAGAGAAUTT against Vpreb2	inactive: 1.08
GGAUGGUGAUUUGUUUCCUTT against Morf4l2	inactive: 0.125
GGACAGCUACAGGAAAAUGTT against Tjp1	inactive: -0.124
GGAAGGUGCUAAAAAUAUATT against Pdhx	inactive: 0.23
CCAGCACUAAAAGUAAGUGTT against Vmn1r177	inactive: 0.154
GCAAUAAGGUAAAUGACUATT against Ercc6	inactive: -0.0442
CCUUCUACCUACUUAUUGGTT against Tomm70a	inactive: 0.178
GGAAGAUGGUAUUCCAUAUTT against Dmc1	inactive: -0.368
GGUUUCGAGAAAACAACAATT against Miip	inactive: 0.566
GGACAGUUGACCUAGCAUATT against 9330155M09Rik	inactive: 0.964
GGAUAUAGCUCAACACUUUTT against Mfsd7a	inactive: 0.751
GCUAGACCGAAGAAUCCUGTT against Spatc1	inactive: -1.1
GCUUCAGAAGCUUAAUAGCTT against Cited1	inactive: -0.316
GCUCAAAUGUUCUAAAAGCTT against Acmsd	inactive: -0.332
GGUGGUCCAGACCAAGUACTT against Pfdn5	inactive: -1.02
CCAAGCGAAUGCUGGACAUTT against Cox4i1	active: 3.44
GGACUACGCCGACUUUGUCTT against Cog2	inactive: -1.89
GCAAGCAAGGAAAAAGCUATT against Glis3	inactive: -0.468
GGACACACUCUACUUCCCATT against Mrgprg	inactive: -0.196
CGGUCUGAACUACUGUGUGTT against Shc4	inactive: 0.631
GGAGUGCAACAAGAAGUUCTT against Klf13	inactive: 1.26

Sequence	z-score
GGAUUGCAUUAGGAAAGAATT against Fancl	inactive: 0.0536
GGACAAGAUAUCCAAGUGGTT against Dennd2a	inactive: 1.97
GCAAUGGAACCACCUCUGATT against Zic5	inactive: 1.41
GGCUUUCAGGCUUUUUGCATT against Spink12	inactive: 0.961
GGAACUUGAUCAAGAAAAUTT against Matr3	inactive: -0.0966
GGAGAAAAUUUUCACCACUTT against Slc25a24	inactive: -1.62
GCCAUAGCUCGAGACUCUCTT against Tfap2b	inactive: 0.0596
GGUCUCAAGUUUUACAUUCTT against Prss35	active: 2.2
CCUGAUAGUCUUGAAGAUGTT against Orm2	inactive: 0.696
GGUAGUCACUAUCCUGAUUTT against Olfr1086	inactive: -0.212
CCCUAAAGAGUGGGAUGUATT against Pi15	inactive: 0.709
GGCUCGAGAGAAGAAGUACTT against Gjb5	inactive: -0.14
CCCAUCGAUCCAUCACAUUTT against Olfr63	inactive: -1.47
GCUUUUAGGGAUUAUUCAGTT against Zfp606	inactive: 1.21
GGAAGCCAAGUGUACAUUUTT against Clca3b	inactive: 0.816
GGAGGUAAAGCUAAGUAAATT against Gtf3c2	inactive: 1.15
GGUUCUGGCUCACAUUCACTT against H2-M3	inactive: 0.979
CGCGUGAAAGGUUUGAGAGTT against Cd24a	inactive: -0.875
GGAGUAGUAGCUAUUAUAUTT against Kctd9	inactive: 1.89
GGCUAGAGAAAUAGUGUUGTT against Reep1	inactive: 0.218
GGUGCCAAUCCUUUGGACATT against 4930590J08Rik	active: 3
GGCCUGCUAUAUGCAUUCCTT against Krtap12-1	inactive: 0.974
GCUUUUCAGUAACUGUCAGTT against Ccrl2	inactive: -0.376

Some values from the list:
z-score, GGAACUUGAUCAAGAAAAUTT against Matr3 reads inactive: -0.0966
z-score, GCUUUUAGGGAUUAUUCAGTT against Zfp606 reads inactive: 1.21
z-score, GGCUUUCAGGCUUUUUGCATT against Spink12 reads inactive: 0.961

The list continues.

Sequence	z-score
GGACAAUGAGCUUGAAUACTT against Ccne1	inactive: -0.274
GGUGACCACUUUUAUCUGATT against Olah	inactive: 0.601
CCUCUUAGCUAGAUCUUACTT against Smu1	active: -2.41
CCUUAGGAUGACCUAAGGGTT against Bsdc1	inactive: -0.744
GGUACUGGAGGGACUUAGATT against Apobr	inactive: -1.98
GCCUUGAACUAUGCAUAGATT against Eno2	inactive: 1.7
CCUGGUCACUCCAAACCCATT against Zfp950	active: -2.11
CCCAGUGUACUUGUCAUUUTT against Rhob	inactive: 0.711
ACCCUCAAUGAUUCAGGAATT against Olfr1344	inactive: 1.79
GUGAUAAACCUGGGACACATT against Lyl1	inactive: -0.0379
GGGACAAAAUGUGAAGACUTT against Reg3b	inactive: 1.53
CCAAAAACUGGGAGUUCGUTT against Olfr513	inactive: -1.41
CGGAAGAUGUUAAAACUAUTT against Slc44a3	inactive: -1.33
CCUCUAAAUAGAGGAUAAGTT against Zfp467	inactive: -0.203
GCCUCUCGUGAAGAACAUATT against Cdkl1	inactive: -0.138
GCUCCACUGAUACUGUUGUTT against Cyp4a10	inactive: -0.831
GGGCUACGAUGUGGAGUUUTT against Traf6	inactive: -0.777
GGAUUUGGCUUUGUAACUUTT against Hnrnpa2b1	inactive: 0.968
CGUGAAUGAGUCUAUACUGTT against Nop10	inactive: 0.609
GCCCAUGGAUACAGAAACUTT against Alpk3	inactive: -0.852
CCACAUGUCCAAUCAGAAUTT against Eef2k	inactive: 0.289
GGAAGGACUAUUUUCUUUCTT against Trak1	inactive: 1.5
